Source: article PMC8080847
Results are given in words; binding and its absence hold for the method and conditions named. Some results given as binding are weak or reduced against the parent protein; the word gives no strength.

Chains of the proteins cited; added tags and fusions are not shown. Residues count along the entry.
UniProt P16070, residues 21-742: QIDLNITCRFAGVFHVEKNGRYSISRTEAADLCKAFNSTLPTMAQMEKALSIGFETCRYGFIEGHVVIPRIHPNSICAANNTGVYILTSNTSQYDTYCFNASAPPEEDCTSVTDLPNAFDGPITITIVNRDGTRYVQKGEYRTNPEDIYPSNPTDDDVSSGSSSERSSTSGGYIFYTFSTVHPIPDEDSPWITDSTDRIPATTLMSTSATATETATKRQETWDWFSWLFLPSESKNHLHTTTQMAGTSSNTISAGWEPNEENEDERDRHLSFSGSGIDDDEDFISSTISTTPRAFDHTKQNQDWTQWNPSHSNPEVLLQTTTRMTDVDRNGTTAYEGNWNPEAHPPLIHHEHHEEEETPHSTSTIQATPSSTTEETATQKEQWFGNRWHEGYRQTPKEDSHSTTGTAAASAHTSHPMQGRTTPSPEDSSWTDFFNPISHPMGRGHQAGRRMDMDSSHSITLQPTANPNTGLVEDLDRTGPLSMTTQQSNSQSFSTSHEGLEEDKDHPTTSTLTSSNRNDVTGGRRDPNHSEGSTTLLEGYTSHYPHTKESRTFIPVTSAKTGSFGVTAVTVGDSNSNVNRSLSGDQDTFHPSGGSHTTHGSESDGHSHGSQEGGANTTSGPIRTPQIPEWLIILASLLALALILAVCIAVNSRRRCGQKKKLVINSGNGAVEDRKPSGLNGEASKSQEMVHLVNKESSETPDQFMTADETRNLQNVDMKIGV

Columns and labels:
[1] = target: EGFR on human cancer cell lines (human (endogenous in A431, A549, NCI-H508, Caco-2, Skbr3, Skov3)) (UniProt P00533); assay: single-molecule diffusional mobility shift assay (smDIMSA); living Skbr3 cells; EGFR as bait, each receptor as prey with an antibody targeting the prey
[2] = target: EGFR on human cancer cell lines (human (endogenous in A431, A549, NCI-H508, Caco-2, Skbr3, Skov3)) (UniProt P00533); assay: single-molecule diffusional mobility shift assay (smDIMSA); living Skov3 cells; EGFR as bait, each receptor as prey with an antibody targeting the prey

Substance: CD44 on human cancer cell lines (from UniProt P16070 21-742) (receptor)
- binding [1]: binds
- binding [2]: binds
